Test results reported in article PMC11715466.
These are yes or no findings as the source states them, for the method shown. In cells and extracts the contact can be indirect. Some binding calls cover weakened binding; strength is not graded here.

Amino acid sequences for entries named in this document (tags omitted).
UniProt O54857: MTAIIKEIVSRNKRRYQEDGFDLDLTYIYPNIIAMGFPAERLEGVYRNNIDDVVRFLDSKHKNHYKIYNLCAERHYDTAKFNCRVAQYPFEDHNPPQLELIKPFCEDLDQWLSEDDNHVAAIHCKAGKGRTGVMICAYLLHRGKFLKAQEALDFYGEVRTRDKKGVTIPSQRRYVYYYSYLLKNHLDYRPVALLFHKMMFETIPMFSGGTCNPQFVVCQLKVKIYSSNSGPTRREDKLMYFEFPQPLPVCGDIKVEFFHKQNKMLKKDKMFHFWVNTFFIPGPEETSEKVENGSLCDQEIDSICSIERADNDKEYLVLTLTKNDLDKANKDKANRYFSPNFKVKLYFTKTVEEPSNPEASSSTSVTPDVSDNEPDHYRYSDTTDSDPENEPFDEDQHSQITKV

Biological target: Phosphatase and Tensin Homolog (rat (endogenous in PC12)) (UniProt O54857)
Experiment: co-IP; Q74 PC12 cell lysate incubated overnight at 4 °C with antibody cross-linked to AminoLink coupling resin; eluate analysed by western blot

B1: Ubiquitin specific peptidase 11 (enzyme, UniProt Q5D006 1-921)
chain: MAAVAADPAAAAVPASAEDRETQPEAMPDLDQQWRQIGNGRERPLRAGESWFLVEKHWYKQWEAYVKGGDQDASTFPGSINNSGLFEDQISWHLRERLVEGDDYVLLPAPAWNYLVSWYGLKDDQPPIERKVIELPGIRKVEVYPIELLLVQHSDMETALTIQFSYSDSVDLVLQTAREQFLVEPQEDTRLWTKNSEGSLDRLCNTQITLLDACLETGQLVIMETRNKDGTWPSAQLCGMNNMPDEDEDFQGQPGICGLTNLGNTCFMNSALQCLSNVPQLTEYFLNNRYLEELNFRNPLGMKGELAEAYADLVKQTWSGYHRSIVPNVFKNKVGHFASQFLGYQQHDSQELLSFLLDGLHEDLNRVKKKEYVELCNGAGRPDLEVAQEAWQNHKRRNDSVIVDTFHGLFKSTLVCPDCGNVSVTFDPFCYLSVPLPVCSRRVLEVFFVPMDPRRKPEQHRVVVPKKGNISDLCVALSTHTSVAPDKMIVADVFSHRFYKLYQLEDPLSGILDRDDIFVYEVTGRIEPVEGSRDDIVVPVYLRERTPSRDYNNSYYGLILFGHPLLVSVPRDRFSWEGLYNILMYRLSRYVTKPTSDDDDGDEKGDENEDEDVEDDSSSEEEKEEMSGPTDNDGTQESEQEQAGTSSGVTGRCPSLLDNSLHTSQWPPRRRRKQLFTLQTVNSNGTSDRTTSPEEAQTQPYIAMDWEPEMKRRYYDEVEAEGYVKHDCVGYMLKKNPVQLKECIKLFTTVETLEKENPWYCSSCKQHQLATKKLDLWMLPEVLIIHLKRFSFSKFSREKLDTLVQFPIRDLDFSEFVIKPKNESAPDLYKYDLIAVSNHYGGMRDGHYTTFACNKDSGQWHYFDDNSVSPVNENQIESKAAYVLFYQRQDVGRRQSQTASSETPTSPASSSTPNSDIMDVN
binding: binds
